The record followed here is US20170007716A1.

Sequences of proteins named here, by UniProt entry; tags and fusion partners are left off. A change or cut given only in a name is not applied to a line headed by its entry.
UniProt Q12884: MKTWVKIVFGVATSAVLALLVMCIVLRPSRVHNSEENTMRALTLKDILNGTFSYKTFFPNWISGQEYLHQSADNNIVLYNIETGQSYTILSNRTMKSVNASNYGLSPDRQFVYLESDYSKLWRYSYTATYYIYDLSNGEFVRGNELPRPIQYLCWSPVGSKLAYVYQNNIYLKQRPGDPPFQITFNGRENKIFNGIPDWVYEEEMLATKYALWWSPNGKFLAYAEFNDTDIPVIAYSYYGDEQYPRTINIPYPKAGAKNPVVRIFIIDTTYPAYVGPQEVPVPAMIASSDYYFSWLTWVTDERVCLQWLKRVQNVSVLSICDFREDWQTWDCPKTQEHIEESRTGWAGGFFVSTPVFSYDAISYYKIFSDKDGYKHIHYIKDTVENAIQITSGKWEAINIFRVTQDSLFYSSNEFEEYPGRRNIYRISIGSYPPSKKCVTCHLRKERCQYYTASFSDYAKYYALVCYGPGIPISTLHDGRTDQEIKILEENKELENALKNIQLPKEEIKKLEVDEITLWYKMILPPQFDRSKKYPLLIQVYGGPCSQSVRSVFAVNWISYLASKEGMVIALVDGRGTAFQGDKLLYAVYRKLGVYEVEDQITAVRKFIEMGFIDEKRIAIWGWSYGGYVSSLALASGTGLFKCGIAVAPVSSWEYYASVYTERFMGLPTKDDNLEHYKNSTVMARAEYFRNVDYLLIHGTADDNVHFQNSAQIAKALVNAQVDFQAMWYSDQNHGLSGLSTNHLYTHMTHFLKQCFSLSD

This assay concerns the target huFAP fusion protein (human) (UniProt Q12884). The experiment in a line: ELISA, huFAP fusion protein. Background: An ELISA detects its analyte on a solid surface through an enzyme-linked reagent.

Results are given in words; binding and its absence hold for the method and conditions named. Some entries that bind do so weakly or less than the wild type.

B1: humanized anti-FAP IgG1 hu36 (hu36-IgG1) (antibody, V domains shown)
VH: QVQLVQSGAEVKKPGASVKVSCKASGYTFTENIIHWVRQAPGQGLEWMGWFHPGSGSIKYNEKFKDRVTMTADTSTSTVYMELSSLRSEDTAVYYCARHGGTGRGAMDYWGQGTLVTVSS
VL: DIQMTQSPSSLSASVGDRVTITCRASKSVSTSAYSYMHWYQQKPGKAPKLLIYLASNLESGVPSRFSGSGSGTDFTLTISSLQPEDFATYYCQHSRELPYTFGQGTKLEIKR
Regarding B1, the binding entry is reported as “binds”.
